Experimental data published in paper doi:10.1101/2023.03.30.534876.

Biological target: T1, PPE51 in pUAB300 (M-PFC fusion to a murine dihydrofolate reductase domain) (M. tuberculosis) (UniProt P9WHY3)
T1 sequence: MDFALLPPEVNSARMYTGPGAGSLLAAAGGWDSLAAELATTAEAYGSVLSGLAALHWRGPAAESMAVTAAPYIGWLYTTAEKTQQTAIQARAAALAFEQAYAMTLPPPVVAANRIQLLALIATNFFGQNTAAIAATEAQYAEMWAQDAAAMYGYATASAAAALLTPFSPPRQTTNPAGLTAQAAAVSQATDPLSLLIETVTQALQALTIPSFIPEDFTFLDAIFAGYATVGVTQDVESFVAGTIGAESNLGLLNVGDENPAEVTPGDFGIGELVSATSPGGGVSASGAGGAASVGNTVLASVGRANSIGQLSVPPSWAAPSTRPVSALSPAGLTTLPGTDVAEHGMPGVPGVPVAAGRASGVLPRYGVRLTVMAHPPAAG
Experiment: split reporter

PPE50 in pUAB400 (M-PFC fusion to a murine dihydrofolate reductase domain) (M. tuberculosis)
binding: binds

No constants are given. Whether binding was seen depends on the method and setting. Binding seen in cells or lysates may run through a third protein. Binding calls can cover weak binding; strength is not graded here. Sequences can lack the tags named with a protein.
